Reference: PubChem BioAssay AID652259 (Drosophila RNAi Screening Center, 2013)
In all, the deposit lists about 22,000 reagents; below is an unselected part of those that have a named target and a result. Of all reagents, 233 (1.1%) got an active call. 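Light values are raw, unnormalised plate reads; the ratio scores behind the reporter calls were not deposited.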 A plus sign joins genes that one reagent is predicted to hit. The record does not give: the amount of reagent, the time to read-out, the dose of the treatment.

Screen: 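Knock-downs that push a Wingless-driven reporter up or down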 (primary screen)
System: Drosophila clone 8 imaginal disc epithelial cells
Reagents: long dsRNA against Drosophila genes
Conditions: pathway stimulated by co-transfected Wingless expression plasmid
Detection: 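Firefly luciferase from a tcf-site Wingless reporter, measured alongside co-transfected Renilla luciferase that tracks transfection; pathway stimulated by a Wingless plasmid; the firefly-to-Renilla ratio is not deposited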
Direction: firefly reporter light: higher = more Wg reporter light, before normalisation; Renilla control light: higher = more transfected or surviving cells
Hit rule: 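Strong candidates differ from their plate mean by at least two out of four per-plate statistical tests; weak candidates meet just one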
Meaning of the calls: active = candidate regulator (raises or lowers reporter); inactive = not a candidate

The first 2 entries as a preview:
target gene	dsRNA	reporter change call, replicate 1	firefly reporter light, replicate 1	firefly reporter light, replicate 2	Renilla control light, replicate 1	Renilla control light, replicate 2	outcome
CG9192 (GeneID 38134)	DRSC08639		3513		1773		inactive
CG13501 (GeneID 37510)	DRSC04146		2235	5221	624	1860	inactive

Results, from the start:
target gene	dsRNA	reporter change call, replicate 1	firefly reporter light, replicate 1	firefly reporter light, replicate 2	Renilla control light, replicate 1	Renilla control light, replicate 2	outcome
CG9192 (GeneID 38134)	DRSC08639		3513		1773		inactive
CG13501 (GeneID 37510)	DRSC04146		2235	5221	624	1860	inactive
Or59b (GeneID 37715)	DRSC04632		1861	7853	749	2704	inactive
CHKov2 (GeneID 43068)	DRSC14262		3376	3989	1540	618	inactive
CG13337 (GeneID 36518)	DRSC06371		6165		2256		inactive
Set1 (GeneID 3354971)	DRSC20930		25237		7379		inactive
Set1 (GeneID 3354971)	DRSC20931		28240		8273		inactive
CG34452 (GeneID 5740876)	DRSC09387		4515		983		inactive
CG30114 (GeneID 246465)	DRSC05707		20474		9597		inactive
CG42810 (GeneID 34764)	DRSC02533		1213	4608	848	2212	inactive
SLIRP1 + anox	DRSC20542		4171	8224	1297	3381	inactive
CG42490 (retired record) (GeneID 8674118)	DRSC01649		21313		9805		inactive
CG4066 (GeneID 41493)	DRSC15541		12715		4918		inactive
CG34231 (GeneID 5740811)	DRSC05323		18745		12074		inactive
kin17 (GeneID 40242)	DRSC11890		17904		3793		inactive
CG13814 (retired record) (GeneID 40223)	DRSC10069		15076		2772		inactive
CG12321 (GeneID 42174)	DRSC14499		3445	7834	1804	2693	inactive
obst-H (GeneID 39681)	DRSC10935		11731		4960		inactive
obst-H (GeneID 39681)	DRSC10940		8437		3634		inactive
Pgm2b (GeneID 36649)	DRSC05978		14930		6011		inactive
CG13047 (GeneID 39790)	DRSC09928		12436		4438		inactive
CG33477 (GeneID 2768726)	DRSC22934		4.87e5	7.19e5	2.32e5	90002	inactive
RhoGAP93B (GeneID 42496)	DRSC15488		18710		4635		inactive
CG15531 (GeneID 43592)	DRSC15068		7971		2753		inactive
CG15927 (GeneID 32193)	DRSC19742		19733		10082		inactive
chm (GeneID 43928)	DRSC03341		13059		5040		inactive
Hmgs (GeneID 44154)	DRSC06866		7301		2448		inactive
Mpv17 (GeneID 43831)	DRSC17198		17104		11456		inactive
CG43191 (GeneID 12798408)	DRSC05326		16528		11261		inactive
CG6576 (GeneID 39003)	DRSC10663		1013	7681	973	2928	inactive
CR31032 (GeneID 5740822)	DRSC22457		5.67e5	5.82e5	1.77e5	1.44e5	inactive
CG3769 (GeneID 34262)	DRSC02723		3899	7857	790	3016	inactive
sle + CG12592	DRSC21387		3.02e5	3.24e5	1.36e5	1.21e5	inactive
CG13716 (GeneID 38567)	DRSC08325		2483	11961	1799	4945	inactive
CG13716 (GeneID 38567)	DRSC22815		4.63e5	5.61e5	2.00e5	2.58e5	inactive
CG8230 (GeneID 35897)	DRSC05931		2824	7881	582	1892	inactive
ph-p (GeneID 31181)	DRSC18820		23316		13916		inactive
mRpL36 (GeneID 59151)	DRSC10337		1795	4932	1056	2103	inactive
CG6424 (GeneID 37012)	DRSC05936		14245		3448		inactive
CG5078 (GeneID 40276)	DRSC11762		12460		3238		inactive
Spt6 (GeneID 44000)	DRSC18836		1424	5281	425	1588	inactive
CG4716 (GeneID 36471)	DRSC06884		13824		4692		inactive
CG15570 (GeneID 31366)	DRSC18058		20807		8977		inactive
Pgam5-2 (GeneID 37899)	DRSC04278		1798	6022	599	2312	inactive
CG7943 (GeneID 43574)	DRSC16351		3312	5961	1184	2027	inactive
lmgA + lmgB	DRSC03566		2701	6373	940	2541	inactive
cDIP (GeneID 42512)	DRSC14267		2452	4984	1145	1691	inactive
CG11722 (GeneID 41227)	DRSC14358		14581		2864		inactive
SdhD (GeneID 42808)	DRSC14215		27058		17412		inactive
tapas (GeneID 37304)	DRSC05950		9409		2251		inactive
kn (GeneID 45318)	DRSC05505		21504		17971		inactive
kn (GeneID 45318)	DRSC05507		19789		15677		inactive
kn (GeneID 45318)	DRSC06196		5842		2071		inactive
kn (GeneID 45318)	DRSC07637		6928		2769		inactive
kn (GeneID 45318)	DRSC21533		7.37e5	6.87e5	3.11e5	2.97e5	inactive
CheB53b (GeneID 3346204)	DRSC05613		14576		7176		inactive
CG7653 (GeneID 34935)	DRSC01886		2389	4950	855	2803	inactive
CG9875 (GeneID 37698)	DRSC04585		3152	8887	768	3049	inactive
Gmer (GeneID 37638)	DRSC04376		11655		3315		inactive
CG6928 (GeneID 39367)	DRSC10749		3440		2020		inactive
Aptx (GeneID 42322)	DRSC15768		14588		3688		inactive
Art2 (GeneID 33631)	DRSC00627		2885	10016	768	2085	inactive
Cpr49Ae (GeneID 36351)	DRSC07201		9634		2290		inactive
CG12170 (GeneID 40692)	DRSC12199		8328		3397		inactive
TwdlC (GeneID 43245)	DRSC14749		7516		2851		inactive
CG4970 (GeneID 3772412)	DRSC02796	Wg reporter activity raised	4546	10240	568	4056	inactive
CanA1 (GeneID 43670)	DRSC16600		10937		3356		inactive
CG13053 (GeneID 50274)	DRSC09934		5797		3056		inactive
Dic61B (GeneID 38020)	DRSC08588		8467		3185		inactive
Tsp47F (GeneID 36230)	DRSC07325		6068		1936		inactive
CG15225 (GeneID 37354)	DRSC04232		3430	13197	1062	3347	inactive
pk (GeneID 45343)	DRSC06178		2104	4889	499	1872	inactive
pk (GeneID 45343)	DRSC07664		2893	8179	930	4240	inactive
pk (GeneID 45343)	DRSC22156		7.60e5	7.68e5	2.98e5	2.74e5	inactive
